These are yes or no findings as the source states them, for the method shown. In cells and extracts the contact can be indirect. Some binding calls cover weakened binding; strength is not graded here.
Biological target: programmed death‐ligand 1 (UniProt Q9NZQ7)
Assay: co-IP; 293T cells cotransfected with PD‐L1 and HRD1 plasmids; extracts in IP lysis buffer with 1% protease inhibitor cocktail, overnight at 4°C with target‐specific antibodies, five washes, immunoblot

Amino acid sequences for entries named in this document (tags omitted). Residues count along the entry.
UniProt Q9NZQ7, residues 19-290: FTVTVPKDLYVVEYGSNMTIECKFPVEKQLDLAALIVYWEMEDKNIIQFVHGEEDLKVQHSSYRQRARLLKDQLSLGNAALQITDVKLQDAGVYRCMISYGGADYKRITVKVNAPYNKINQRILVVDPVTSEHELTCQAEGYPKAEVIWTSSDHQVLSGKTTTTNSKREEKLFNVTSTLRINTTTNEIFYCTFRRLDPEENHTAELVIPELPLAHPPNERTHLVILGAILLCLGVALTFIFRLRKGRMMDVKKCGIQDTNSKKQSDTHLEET
UniProt Q86TM6: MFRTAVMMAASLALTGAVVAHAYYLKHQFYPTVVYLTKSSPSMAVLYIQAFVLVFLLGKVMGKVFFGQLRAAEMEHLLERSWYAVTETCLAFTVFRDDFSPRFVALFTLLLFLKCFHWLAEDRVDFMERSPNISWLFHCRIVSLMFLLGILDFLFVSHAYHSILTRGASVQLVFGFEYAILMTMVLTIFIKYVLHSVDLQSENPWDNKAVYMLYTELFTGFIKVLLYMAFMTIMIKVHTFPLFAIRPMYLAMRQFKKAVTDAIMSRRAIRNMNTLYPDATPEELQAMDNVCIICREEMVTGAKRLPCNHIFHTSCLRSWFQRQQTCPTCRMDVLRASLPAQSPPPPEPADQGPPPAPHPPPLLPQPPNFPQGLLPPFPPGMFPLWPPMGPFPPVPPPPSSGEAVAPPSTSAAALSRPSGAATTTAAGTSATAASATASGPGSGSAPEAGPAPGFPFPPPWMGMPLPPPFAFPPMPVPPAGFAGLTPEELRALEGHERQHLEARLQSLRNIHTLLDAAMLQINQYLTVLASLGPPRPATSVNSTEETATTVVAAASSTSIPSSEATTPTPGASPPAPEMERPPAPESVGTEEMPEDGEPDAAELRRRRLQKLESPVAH

Q: For “HMG‐CoA reductase degradation protein 1 (from UniProt Q86TM6 1-617) (enzyme)”, which binding is on record?
A: binds
